# Data as given in the supplement of paper PMC10849652.
# Protein sequences, listed by entry. Tags and fused reporters are not part of them. Lines headed by an entry give the natural chain unless they say otherwise; changes in a name come on top.
# UniProt Q9UIC8: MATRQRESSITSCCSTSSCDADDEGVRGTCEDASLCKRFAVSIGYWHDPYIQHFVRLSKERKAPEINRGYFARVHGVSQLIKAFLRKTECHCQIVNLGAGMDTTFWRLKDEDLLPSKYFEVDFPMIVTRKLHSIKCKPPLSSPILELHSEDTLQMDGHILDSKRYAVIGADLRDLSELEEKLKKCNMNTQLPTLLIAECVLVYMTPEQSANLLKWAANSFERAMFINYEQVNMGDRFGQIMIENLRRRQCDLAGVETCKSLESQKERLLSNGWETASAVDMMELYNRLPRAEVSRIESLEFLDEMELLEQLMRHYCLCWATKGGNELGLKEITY
# UniProt P25791: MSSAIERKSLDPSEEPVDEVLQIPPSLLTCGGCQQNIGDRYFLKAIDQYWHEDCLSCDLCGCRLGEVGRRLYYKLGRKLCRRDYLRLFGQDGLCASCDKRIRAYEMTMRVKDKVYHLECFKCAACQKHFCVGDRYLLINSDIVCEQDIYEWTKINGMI
# UniProt O00214: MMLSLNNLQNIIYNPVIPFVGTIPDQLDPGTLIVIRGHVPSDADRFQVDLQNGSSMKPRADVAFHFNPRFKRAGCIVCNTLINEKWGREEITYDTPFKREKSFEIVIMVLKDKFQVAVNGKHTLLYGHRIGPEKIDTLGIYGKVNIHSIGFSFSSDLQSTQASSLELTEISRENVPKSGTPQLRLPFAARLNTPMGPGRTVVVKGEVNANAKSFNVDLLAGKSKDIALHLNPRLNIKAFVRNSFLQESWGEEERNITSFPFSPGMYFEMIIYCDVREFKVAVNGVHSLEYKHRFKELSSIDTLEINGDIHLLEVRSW
# UniProt Q7L1W4: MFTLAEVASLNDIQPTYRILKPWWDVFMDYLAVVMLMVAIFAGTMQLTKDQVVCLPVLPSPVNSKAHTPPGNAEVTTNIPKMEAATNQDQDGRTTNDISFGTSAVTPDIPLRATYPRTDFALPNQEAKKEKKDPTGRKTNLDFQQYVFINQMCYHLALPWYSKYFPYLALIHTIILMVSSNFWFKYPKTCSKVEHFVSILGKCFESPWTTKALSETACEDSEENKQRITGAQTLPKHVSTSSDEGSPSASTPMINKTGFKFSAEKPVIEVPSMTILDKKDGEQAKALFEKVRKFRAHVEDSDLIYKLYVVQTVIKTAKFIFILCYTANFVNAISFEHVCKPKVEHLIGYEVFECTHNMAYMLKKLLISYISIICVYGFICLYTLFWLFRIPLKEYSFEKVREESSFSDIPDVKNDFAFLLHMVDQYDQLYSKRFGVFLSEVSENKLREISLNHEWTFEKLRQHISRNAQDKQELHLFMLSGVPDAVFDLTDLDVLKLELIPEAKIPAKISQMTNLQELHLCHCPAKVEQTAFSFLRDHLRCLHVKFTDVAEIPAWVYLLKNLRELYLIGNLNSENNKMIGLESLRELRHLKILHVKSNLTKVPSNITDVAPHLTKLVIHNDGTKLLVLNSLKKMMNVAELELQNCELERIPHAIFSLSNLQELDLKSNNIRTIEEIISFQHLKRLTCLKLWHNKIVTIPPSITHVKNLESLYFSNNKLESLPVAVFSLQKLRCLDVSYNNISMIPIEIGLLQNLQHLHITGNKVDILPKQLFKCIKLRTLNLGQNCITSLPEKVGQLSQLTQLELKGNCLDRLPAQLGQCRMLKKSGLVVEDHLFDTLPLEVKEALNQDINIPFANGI
# UniProt Q9UHB6: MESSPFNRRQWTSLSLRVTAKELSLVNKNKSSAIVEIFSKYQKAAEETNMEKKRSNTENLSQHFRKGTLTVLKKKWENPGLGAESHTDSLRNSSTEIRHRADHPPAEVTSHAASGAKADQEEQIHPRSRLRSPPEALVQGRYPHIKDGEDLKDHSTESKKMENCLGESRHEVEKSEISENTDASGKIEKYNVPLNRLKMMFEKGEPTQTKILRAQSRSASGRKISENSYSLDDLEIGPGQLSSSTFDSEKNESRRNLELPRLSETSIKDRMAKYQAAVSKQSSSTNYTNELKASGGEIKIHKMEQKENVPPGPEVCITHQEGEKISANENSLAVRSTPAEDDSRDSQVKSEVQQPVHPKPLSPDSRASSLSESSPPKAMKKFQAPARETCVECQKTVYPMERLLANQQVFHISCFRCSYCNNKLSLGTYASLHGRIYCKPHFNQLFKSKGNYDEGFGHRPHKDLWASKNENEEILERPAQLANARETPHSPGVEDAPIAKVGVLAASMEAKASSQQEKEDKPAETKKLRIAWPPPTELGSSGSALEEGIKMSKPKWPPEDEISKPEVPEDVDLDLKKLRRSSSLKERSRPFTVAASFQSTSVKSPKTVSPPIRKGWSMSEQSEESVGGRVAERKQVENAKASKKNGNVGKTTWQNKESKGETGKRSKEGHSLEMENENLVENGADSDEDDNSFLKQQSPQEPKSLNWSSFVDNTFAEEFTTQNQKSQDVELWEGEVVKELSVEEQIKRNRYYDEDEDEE
# UniProt Q8N9N7: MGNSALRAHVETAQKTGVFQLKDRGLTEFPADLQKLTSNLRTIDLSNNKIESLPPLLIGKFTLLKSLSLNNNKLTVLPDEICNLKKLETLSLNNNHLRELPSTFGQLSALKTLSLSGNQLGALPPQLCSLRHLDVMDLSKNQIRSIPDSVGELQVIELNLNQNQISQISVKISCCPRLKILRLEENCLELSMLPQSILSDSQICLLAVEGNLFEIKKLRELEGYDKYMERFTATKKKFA
# UniProt Q9Y333: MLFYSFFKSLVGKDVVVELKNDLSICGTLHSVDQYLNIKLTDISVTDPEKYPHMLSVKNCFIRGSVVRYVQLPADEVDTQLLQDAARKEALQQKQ
# UniProt Q8NG48: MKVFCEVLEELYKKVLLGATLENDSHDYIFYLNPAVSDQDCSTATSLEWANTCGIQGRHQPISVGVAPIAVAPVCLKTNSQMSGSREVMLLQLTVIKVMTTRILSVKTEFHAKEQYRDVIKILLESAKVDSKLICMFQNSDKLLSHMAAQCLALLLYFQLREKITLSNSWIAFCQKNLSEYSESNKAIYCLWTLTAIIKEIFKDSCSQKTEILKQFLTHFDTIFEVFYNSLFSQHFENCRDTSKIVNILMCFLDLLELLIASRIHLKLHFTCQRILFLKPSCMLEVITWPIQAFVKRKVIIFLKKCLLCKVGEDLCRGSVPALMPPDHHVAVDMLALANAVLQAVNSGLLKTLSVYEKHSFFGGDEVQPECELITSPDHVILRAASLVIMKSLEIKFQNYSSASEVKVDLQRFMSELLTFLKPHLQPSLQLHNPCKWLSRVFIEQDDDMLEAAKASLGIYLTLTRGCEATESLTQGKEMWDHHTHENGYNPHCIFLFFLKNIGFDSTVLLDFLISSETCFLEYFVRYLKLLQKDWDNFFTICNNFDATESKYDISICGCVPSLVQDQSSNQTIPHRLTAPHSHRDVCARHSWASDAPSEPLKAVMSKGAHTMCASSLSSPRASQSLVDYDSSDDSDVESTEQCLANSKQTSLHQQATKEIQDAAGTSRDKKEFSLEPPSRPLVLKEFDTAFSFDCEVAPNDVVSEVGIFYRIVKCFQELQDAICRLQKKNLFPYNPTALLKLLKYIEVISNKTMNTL
# UniProt P18858, whole entry, looked up: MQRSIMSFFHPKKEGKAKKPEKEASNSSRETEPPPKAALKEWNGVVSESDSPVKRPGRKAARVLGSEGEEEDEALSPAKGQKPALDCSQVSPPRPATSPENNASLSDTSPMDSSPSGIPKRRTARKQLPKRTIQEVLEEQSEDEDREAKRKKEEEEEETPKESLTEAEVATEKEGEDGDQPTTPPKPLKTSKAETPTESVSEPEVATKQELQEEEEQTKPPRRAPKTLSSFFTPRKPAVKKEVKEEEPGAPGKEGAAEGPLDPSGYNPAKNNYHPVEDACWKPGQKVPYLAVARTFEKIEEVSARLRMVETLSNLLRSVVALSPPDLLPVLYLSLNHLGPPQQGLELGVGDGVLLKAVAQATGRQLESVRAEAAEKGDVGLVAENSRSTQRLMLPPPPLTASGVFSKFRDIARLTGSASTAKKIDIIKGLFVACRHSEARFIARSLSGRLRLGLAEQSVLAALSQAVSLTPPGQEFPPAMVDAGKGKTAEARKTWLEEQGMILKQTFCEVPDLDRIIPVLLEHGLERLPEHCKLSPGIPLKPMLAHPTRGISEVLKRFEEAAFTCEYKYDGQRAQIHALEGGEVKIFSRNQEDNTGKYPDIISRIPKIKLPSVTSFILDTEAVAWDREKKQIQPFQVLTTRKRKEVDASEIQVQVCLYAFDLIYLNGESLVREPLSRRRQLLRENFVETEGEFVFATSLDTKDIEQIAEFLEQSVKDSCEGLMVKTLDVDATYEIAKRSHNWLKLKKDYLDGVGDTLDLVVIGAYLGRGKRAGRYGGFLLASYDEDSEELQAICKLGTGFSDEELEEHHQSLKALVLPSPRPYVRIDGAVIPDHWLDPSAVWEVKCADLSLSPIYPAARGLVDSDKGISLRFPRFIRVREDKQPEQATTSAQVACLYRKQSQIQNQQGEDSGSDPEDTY
# UniProt P49917: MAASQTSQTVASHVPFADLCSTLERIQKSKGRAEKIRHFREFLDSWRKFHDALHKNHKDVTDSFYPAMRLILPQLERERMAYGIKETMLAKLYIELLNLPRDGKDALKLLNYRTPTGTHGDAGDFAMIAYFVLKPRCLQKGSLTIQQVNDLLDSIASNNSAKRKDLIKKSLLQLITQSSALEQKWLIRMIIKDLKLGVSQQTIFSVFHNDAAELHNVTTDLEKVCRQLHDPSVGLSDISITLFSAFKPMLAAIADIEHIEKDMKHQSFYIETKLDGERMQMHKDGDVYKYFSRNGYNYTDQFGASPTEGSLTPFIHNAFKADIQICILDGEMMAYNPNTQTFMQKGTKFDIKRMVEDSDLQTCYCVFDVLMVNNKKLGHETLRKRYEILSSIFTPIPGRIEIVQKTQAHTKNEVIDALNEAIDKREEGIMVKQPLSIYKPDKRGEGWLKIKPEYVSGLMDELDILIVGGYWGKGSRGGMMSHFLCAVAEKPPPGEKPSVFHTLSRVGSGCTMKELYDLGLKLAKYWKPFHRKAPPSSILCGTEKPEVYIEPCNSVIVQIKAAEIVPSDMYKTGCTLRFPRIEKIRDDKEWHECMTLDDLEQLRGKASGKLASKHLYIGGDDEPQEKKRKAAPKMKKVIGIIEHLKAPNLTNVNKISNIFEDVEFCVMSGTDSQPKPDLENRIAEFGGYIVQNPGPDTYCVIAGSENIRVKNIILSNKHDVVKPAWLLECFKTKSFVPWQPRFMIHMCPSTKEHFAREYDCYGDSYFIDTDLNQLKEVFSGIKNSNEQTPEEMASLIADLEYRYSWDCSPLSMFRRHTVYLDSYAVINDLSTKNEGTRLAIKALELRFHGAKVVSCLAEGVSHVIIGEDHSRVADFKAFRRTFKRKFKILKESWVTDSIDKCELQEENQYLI
# UniProt Q86X29: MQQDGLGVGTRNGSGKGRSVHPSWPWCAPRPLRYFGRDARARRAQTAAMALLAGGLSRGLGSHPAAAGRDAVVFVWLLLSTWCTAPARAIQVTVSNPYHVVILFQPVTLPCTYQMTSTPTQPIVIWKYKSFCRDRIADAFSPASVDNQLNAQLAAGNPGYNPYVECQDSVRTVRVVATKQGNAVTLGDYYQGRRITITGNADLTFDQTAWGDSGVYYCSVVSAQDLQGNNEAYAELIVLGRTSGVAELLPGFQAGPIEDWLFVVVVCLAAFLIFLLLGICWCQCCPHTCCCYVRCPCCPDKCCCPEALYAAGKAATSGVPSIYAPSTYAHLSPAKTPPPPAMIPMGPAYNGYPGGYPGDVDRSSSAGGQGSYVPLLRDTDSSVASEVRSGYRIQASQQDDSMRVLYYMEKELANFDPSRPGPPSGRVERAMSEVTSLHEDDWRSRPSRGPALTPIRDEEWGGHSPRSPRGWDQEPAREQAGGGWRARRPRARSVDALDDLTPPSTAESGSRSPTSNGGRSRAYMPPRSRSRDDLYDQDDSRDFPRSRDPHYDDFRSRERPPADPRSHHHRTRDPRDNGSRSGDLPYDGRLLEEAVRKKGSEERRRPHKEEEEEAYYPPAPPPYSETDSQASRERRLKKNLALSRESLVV
# UniProt Q5TKA1: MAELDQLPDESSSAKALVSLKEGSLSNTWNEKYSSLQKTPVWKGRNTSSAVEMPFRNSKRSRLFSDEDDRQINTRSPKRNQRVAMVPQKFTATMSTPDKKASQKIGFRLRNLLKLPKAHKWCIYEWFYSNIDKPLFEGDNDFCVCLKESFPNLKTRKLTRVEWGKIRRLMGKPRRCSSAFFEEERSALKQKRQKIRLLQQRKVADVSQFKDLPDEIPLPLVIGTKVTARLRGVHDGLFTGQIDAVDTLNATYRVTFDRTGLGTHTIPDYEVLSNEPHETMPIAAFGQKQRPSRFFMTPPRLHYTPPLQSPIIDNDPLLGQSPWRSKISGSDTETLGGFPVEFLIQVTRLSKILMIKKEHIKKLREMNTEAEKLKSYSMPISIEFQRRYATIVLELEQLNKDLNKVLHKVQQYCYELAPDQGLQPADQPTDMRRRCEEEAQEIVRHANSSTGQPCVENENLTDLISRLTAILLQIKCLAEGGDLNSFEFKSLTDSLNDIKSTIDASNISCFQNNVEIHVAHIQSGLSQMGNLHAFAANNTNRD
# The other results are listed elsewhere or left out.
# Compound: O=C(CCCCCCC(=O)Nc1ccccc1)NO [vorinostat]
# Experiment: log2 fold change, soluble protein after heating vs DMSO (PISA); higher = thermal stabilisation; K562 lysate, 10 uM; active = over 0.2 and 3.5 SD of the protein, either way, in both replicates (recomputed)
# How it was run: (§1)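 A 30 min treatment with 10 μM compound was applied to crude K562 extract at 1 mg/mL protein in PBS pH 7.4 with 1 mM MgCl2. Heating for 3 min spanned 48°C-58°C, after which aliquots were pooled, adjusted to 0.5% NP-40 at 4°C and spun at 21,000xg for 90 min. TMTpro 16plex LC-MS/MS of the supernatant, with channel sums equalised, gave values recorded as log-two fold change in thermal stability against solvent controls, from duplicates.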
row,Target,log2 fold change
1,LRPPRC (UniProt P42704),active: -0.259
2,LETMD1 isoform 7 (UniProt Q6P1Q0),inactive: -0.033
3,LARS2 (UniProt Q15031),inactive: -0.229
4,LMNB2 (UniProt Q03252),inactive: 0.072
5,LCLAT1 (UniProt Q6UWP7),inactive: 0.058
6,LEO1 (UniProt Q8WVC0),inactive: 0.069
7,LCMT2 (UniProt O60294),inactive: -0.016
8,LRRC8B (UniProt Q6P9F7),inactive: 0.005
9,LCMT1 (UniProt Q9UIC8),inactive: 0.097
10,"LRBA, A0A494BZW2",inactive: -0.163
11,LMO2 isoform 3 (UniProt P25791),inactive: -0.042
12,LRRC8C (UniProt Q8TDW0),inactive: -0.05
13,LDAH isoform 2 (UniProt Q9H6V9),inactive: -0.13
14,LMAN2L isoform 2 (UniProt Q9H0V9),inactive: 0.137
15,LRCH4 (UniProt O75427),inactive: -0.33
16,LCP2 (UniProt Q13094),inactive: 0.027
17,LAS1L (UniProt Q9Y4W2),active: -0.397
18,LRWD1 (UniProt Q9UFC0),active: -0.322
19,LSM14B isoform 2 (UniProt Q9BX40),inactive: -0.093
20,LGALS8 isoform 2 (UniProt O00214),inactive: -0.01

row,Target,log2 fold change
1,LIMD1 (UniProt Q9UGP4),inactive: -0.166
2,LDHA isoform 3 (UniProt P00338),inactive: 0.12
3,LIN7C (UniProt Q9NUP9),inactive: 0.01
4,LRRC8D (UniProt Q7L1W4),inactive: 0.064
5,LIMA1 isoform 4 (UniProt Q9UHB6),inactive: 0.038
6,LRRC57 (UniProt Q8N9N7),inactive: -0.144
7,LMAN1 (UniProt P49257),inactive: 0.117
8,LMNB1 (UniProt P20700),inactive: 0.058
9,LSM2 (UniProt Q9Y333),inactive: 0.143
10,LINS1 (UniProt Q8NG48),inactive: -0.089
11,LIG1 (UniProt P18858),inactive: -0.038
12,LMBRD1 (UniProt Q9NUN5),inactive: 0.094
13,LRRCC1 (UniProt Q9C099),inactive: 0.043
14,LRCH3 (UniProt Q96II8),active: -0.535
15,LIG4 (UniProt P49917),inactive: -0.368
16,LRRC59 (UniProt Q96AG4),inactive: 0.124
17,LSR (UniProt Q86X29),inactive: 0.057
18,LIN9 isoform 2 (UniProt Q5TKA1),inactive: -0.199
19,LNPK (UniProt Q9C0E8),inactive: 0.141

# Compound: O=C(O)c1ccc2c(c1)nc(Nc1cccc(Cl)c1)c1ccncc12 [silmitasertib]
# Experiment: as above
# How it was run: as §1
row,Target,log2 fold change
1,LRPPRC (UniProt P42704),inactive: 0.072
2,LETMD1 isoform 7 (UniProt Q6P1Q0),inactive: 0.096
3,LARS2 (UniProt Q15031),inactive: 0.054
4,LMNB2 (UniProt Q03252),inactive: 0.079
5,LCLAT1 (UniProt Q6UWP7),inactive: -0.008
6,LEO1 (UniProt Q8WVC0),inactive: -0.02
7,LCMT2 (UniProt O60294),inactive: -0.016
8,LRRC8B (UniProt Q6P9F7),inactive: 0.053
9,LCMT1 (UniProt Q9UIC8),inactive: 0.033
10,"LRBA, A0A494BZW2",inactive: 0
11,LMO2 isoform 3 (UniProt P25791),inactive: 0.018
12,LRRC8C (UniProt Q8TDW0),inactive: 0.005
13,LDAH isoform 2 (UniProt Q9H6V9),inactive: 0.064
14,LMAN2L isoform 2 (UniProt Q9H0V9),inactive: -0.05
15,LRCH4 (UniProt O75427),inactive: -0.005
16,LCP2 (UniProt Q13094),inactive: -0.025
17,LAS1L (UniProt Q9Y4W2),inactive: 0.01
18,LRWD1 (UniProt Q9UFC0),inactive: -0.008
19,LSM14B isoform 2 (UniProt Q9BX40),inactive: -0.008
20,LGALS8 isoform 2 (UniProt O00214),inactive: 0.009

row,Target,log2 fold change
1,LIMD1 (UniProt Q9UGP4),inactive: -0.004
2,LDHA isoform 3 (UniProt P00338),inactive: 0.009
3,LIN7C (UniProt Q9NUP9),inactive: -0.022
4,LRRC8D (UniProt Q7L1W4),inactive: 0.004
5,LIMA1 isoform 4 (UniProt Q9UHB6),inactive: 0.013
6,LRRC57 (UniProt Q8N9N7),inactive: 0
7,LMAN1 (UniProt P49257),inactive: 0.021
8,LMNB1 (UniProt P20700),inactive: -0.007
9,LSM2 (UniProt Q9Y333),inactive: -0.023
10,LINS1 (UniProt Q8NG48),inactive: -0.188
11,LIG1 (UniProt P18858),inactive: 0.005
12,LMBRD1 (UniProt Q9NUN5),inactive: -0.051
13,LRRCC1 (UniProt Q9C099),inactive: -0.016
14,LRCH3 (UniProt Q96II8),inactive: 0.048
15,LIG4 (UniProt P49917),inactive: 0.107
16,LRRC59 (UniProt Q96AG4),inactive: 0.004
17,LSR (UniProt Q86X29),inactive: -0.034
18,LIN9 isoform 2 (UniProt Q5TKA1),inactive: -0.01
19,LNPK (UniProt Q9C0E8),inactive: -0.033
